Measured values: US20160053022A1 (PETER MACCALLUM CANCER INSTITUTE, published 2016)
Results are given in words; binding and its absence hold for the method and conditions named. Some binding calls cover weakened binding; strength is not graded here.

By UniProt entry, the sequences of proteins in these tests, tags left out. Residues count along the entry.
UniProt P34925, residues 66-194: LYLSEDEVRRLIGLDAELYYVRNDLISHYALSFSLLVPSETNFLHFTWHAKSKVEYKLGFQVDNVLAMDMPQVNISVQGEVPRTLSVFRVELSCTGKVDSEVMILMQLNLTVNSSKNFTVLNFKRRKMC

Key:
hRYKWD.Fc [1] = target: T1, hRYKWD.Fc (human, UniProt P34925 66-194, limits assumed); experiment: competitive phage ELISA on hRYKWD.Fc (competitor recombinant Wnt3a)
T1 construct: domain: WIF domain; also called hRYKWD.Fc.FLAG; fusion protein containing the human RYK WIF domain; not shown: Fc region of human IgG1

hRYKWD.Fc [2] = target: T1, hRYKWD.Fc; experiment: phage display screen, direct binding and competitive ELISA (phage-displayed clone; competitor recombinant mouse Wnt3a)

Row | binding (hRYKWD.Fc [1]) | binding (hRYKWD.Fc [2]) | Binder
1 | binds | binds | scFvN3 (scFv) scFv: EVQLLESGGGLVQPGGSLRLSCAASGFTFSSYAMSWVRQAPGKGLEWVSTISRVGFPTVYADSVKGRFTISRDNSKNTLYLQMNSLRAEDTAVYYCAKRGHPFDYWGQGTLVTVSSGGGGSGGGGSGGGGSTDIQMTQSPSSLSASVGDRVTITCRASQSISSYLNWYQQKPGKAPKLLIYQASVLQSGVPSRFSGSGSGTDFTLTISSLQPEDFATYYCQQPGPAPPTFGQGTKVEIKRHHHHHH
2 | binds | binds | scFv3 (scFv) scFv: EVQLLESGGGLVQPGGSLRLSCAASGFTFSSYAMSWVRQAPGKGLEWVSLIHKAGHTTQYADSVKGRFTISRDNSKNTLYLQMNSLRAEDTAVYYCAKGYRHFDYWGQGTLVTVSSGGGGSGGGGSGGGGSTDIQMTQSPSSLSASVGDRVAITCRASQSISSYLNWYQQKPGKAPKLLIYRASNLQSGVPSRFSGSGSGTDFTLTISSLQPEDFATYYCQQAVGSPRTFGQGTKVEIKRHHHHHH
